At least one peptide structure holds a part that was inferred or is arguable (an end, a ring closure or a residue). Peptide text beside a SMILES is read from it.
How the values were obtained:
[1] = target: T1, IgE already bound to mast cell sites (Homo sapiens, UniProt P12319); test: Displacement test: direct guinea pig antigen skin challenge in a naturally sensitive individual; format: in vivo; conditions: challenge one and five hours after intradermal injection of approx. 2 nM; single sensitive individual
T1 construct: endogenous in cells; host or cells: skin mast cells of one naturally guinea-pig-sensitive person, carrying own IgE
T1 sequence (P12319 26-257): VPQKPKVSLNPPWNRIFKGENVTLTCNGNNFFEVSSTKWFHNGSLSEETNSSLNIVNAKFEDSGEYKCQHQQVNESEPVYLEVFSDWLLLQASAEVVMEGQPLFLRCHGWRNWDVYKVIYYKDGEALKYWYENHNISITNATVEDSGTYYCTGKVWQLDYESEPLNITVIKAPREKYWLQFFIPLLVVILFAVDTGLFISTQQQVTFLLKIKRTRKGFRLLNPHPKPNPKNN
T1 sequence (Q01362 1-244 partner): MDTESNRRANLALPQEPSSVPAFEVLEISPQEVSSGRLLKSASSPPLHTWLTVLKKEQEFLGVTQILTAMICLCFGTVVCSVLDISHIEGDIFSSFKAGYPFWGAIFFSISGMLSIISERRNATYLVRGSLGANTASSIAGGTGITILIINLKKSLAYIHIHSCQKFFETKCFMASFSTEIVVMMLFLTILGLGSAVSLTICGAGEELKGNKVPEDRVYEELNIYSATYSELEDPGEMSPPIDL
T1 sequence (P30273 19-86 partner): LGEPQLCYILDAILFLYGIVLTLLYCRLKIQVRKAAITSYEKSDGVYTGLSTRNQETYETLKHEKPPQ
Experimental: It has also been determined that the active polypeptides of the invention appear to have the ability to "displace" IgE from mast cell sites as well as to prevent the binding of IgE to these sites. In a single test, an individual known to have extreme sensitivity to guinea pig antigens, that is a person with a high natural concentration of guinea-pig-antigen-sensitive IgE, was injected with polypeptides in accordance with the invention, and […] reaction to guinea pig antigen was noted.
Specifically, approximately 2 nM each of Asp-Ser-Asp-Pro-Arg and Ala-Asp-Ser-Asp-Pro-Arg were each intradermally injected into 3 marked sites. For comparison, TASME, as well as a control of the buffer diluent alone, was also each injected into 3 marked sites. At one, five and twenty-four hours subsequent to the polypeptide and control injection, one of each peptide and one diluent site were prick-puncture challenged with guinea pig antigen. […] However, at the twenty-four hour challenge, the wheal at the Asp-Ser-Asp-Pro-Arg site was approximately 45% smaller; while at the Ala-Asp-Ser-Asp-Pro-Arg site, the wheal was approximately 23% smaller.

[2] = target: T2, binding sites on mast cells (Homo sapiens, UniProt P12319); test: Prausnitz-Kustner (P-K) reaction blocking activity assay in human volunteers; format: in vivo; conditions: summary of Example 13
T2 construct: endogenous in cells; host or cells: skin mast cells of living human volunteers (intradermal injection sites on back or forearm)
T2 sequence (P12319 26-257): T1 sequence (P12319 26-257)
T2 sequence (Q01362 1-244 partner): T1 sequence (Q01362 1-244 partner)
T2 sequence (P30273 19-86 partner): T1 sequence (P30273 19-86 partner)
Experimental: The "blocking" activity of the polypeptides of the invention can be assayed by utilization of the classic Prausnitz-Kustner (P-K) reaction. In this classic method, a known allergic serum i.e., one that contains IgE specific for a known antigen or allergen is injected intradermally into a human volunteer. After waiting a period of time, e.g. 20 or more hours, the injected sites are then challenged with a prick or injection of a solution of an antigen that is specific for the IgE in the injected serum. Within the next 10 to 30 minutes a positive reaction is evidenced by the development of a wheal (and flare) at the injected site. The more extensive the diameter of the wheal the more intensive is the allergic reaction. That is, a more extensive wheal indicates a greater release of histamine into the tissues at the injected site. Conversely, the development of wheals of lesser diameter or the absence of any wheal at all indicates diminished allergic reaction and/or no allergic reaction at all. The P-K reaction as noted above is a classic test and is universally known and utilized by allergists.
As noted above, the classic P-K reaction is utilized to assay the "blocking" abilities of the polypeptides utilized in the present invention.
The following describes assays of a number of polypeptides useful in the present invention, the synthesis of which was described hereinabove. […]

| Compound | inhibition of the wheal and flare reaction [1] | "blocking" activity in words (comparison of the peptides) [2] |
| --- | --- | --- |
| C[C@H](N)C(=O)N[C@@H](CC(=O)O)C(=O)N[C@@H](CO)C(=O)N[C@@H](CC(=O)O)C(=O)N1CCC[C@H]1C(=O)N[C@@H](CCCNC(=N)N)C(=O)O [Ala-Asp-Ser-Asp-Pro-Arg] (H-ADSDPR-OH) | No inhibition | somewhat less activity |
| N=C(N)NCCC[C@H](NC(=O)[C@@H]1CCCN1C(=O)[C@H](CC(=O)O)NC(=O)[C@H](CO)NC(=O)[C@@H](N)CC(=O)O)C(=O)O [Asp-Ser-Asp-Pro-Arg] (H-DSDPR-OH) | No inhibition |  |
| C[C@H](NC(=O)[C@H](CCC(=O)O)NC(=O)[C@@H](NC(=O)[C@@H](N)CC(=O)O)[C@@H](C)O)C(=O)N[C@@H](CCCNC(=N)N)C(=O)O [Asp-Thr-Glu-Ala-Arg, reference compound] (H-DTEAR-OH) |  | high activity |

From patent US4171299A, “Polypeptide agents for blocking the human allergic response” (The Regents of the University of California, priority 1976, dated 1979)
